Experimental data taken from paper doi:10.1101/2020.12.14.422803.
Results are given in words; binding and its absence hold for the method and conditions named. Some results given as binding are weak or reduced against the parent protein; the word gives no strength. Tags and fused reporters may be left off the sequences shown.

Protein sequences, listed by entry. Tags and fused reporters are not part of them.
UniProt P48292: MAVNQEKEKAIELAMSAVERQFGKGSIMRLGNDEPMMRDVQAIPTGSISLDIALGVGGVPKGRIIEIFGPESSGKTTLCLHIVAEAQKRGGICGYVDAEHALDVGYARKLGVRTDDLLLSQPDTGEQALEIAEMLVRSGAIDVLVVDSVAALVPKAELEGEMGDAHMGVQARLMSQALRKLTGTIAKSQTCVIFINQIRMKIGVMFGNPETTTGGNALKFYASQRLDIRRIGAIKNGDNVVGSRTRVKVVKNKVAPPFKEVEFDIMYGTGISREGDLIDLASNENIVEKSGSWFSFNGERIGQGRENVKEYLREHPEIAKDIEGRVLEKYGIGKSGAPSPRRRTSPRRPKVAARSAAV

Target: RecA2 (M. xanthus), yeast two-hybrid fusion (Myxococcus xanthus DK1622) (UniProt P48292)
Assay: two-hybrid

B1: RecA1 (M. xanthus), yeast two-hybrid fusion (protein, UniProt P48291 1-342)
chain: MSKLAEKLKAVAAAVASIEKQFGRGSVMTLGGEAREQKVAVIPSGSVGVDRALGVGGYPRGRVVEVFGNESSGKTTLTLHAIAQVQAAGGVAAFIDAEHALDVSYARKLGVRVEELLVSQPDTGEQALEITEHLVRSGAVDLIVVDSVAALVPRAEIEGEMGDAHMGVQARLMSQALRKLTGAVSRSGTCIIFINQIRMKIGVMFGNPETTTGGNALKFYASVRMEIRRTGNIKDGDAVVGSKARVKVVKNKVAPPFQEAEFDLMYGSGIHRVGEVLDLGVATGLIEKSGSYFSLRGERIGQGRERAAEWLREHPDVLEALGKEITGTSALPSSPAPVEVAA
- binding: binds
